According to PMC2930004:
Results are given in words; binding and its absence hold for the method and conditions named. Binding seen in cells or lysates may run through a third protein. Some binding calls cover weakened binding; strength is not graded here. Tags and fused reporters may be left off the sequences shown.

Legend:
[1] = target: T1, BAR2-YFP (C-terminal YFP fusion of the APPL2 minimal BAR domain, residues 18-225) (human) (UniProt Q8NEU8); experiment: FRET or BRET; comparison of pre-bleach and post-bleach emission spectra (lambda mode, same detector gain) in the bleached region; CFP donor and YFP acceptor co-expressed in DLD-1 cells, fixed
T1 sequence: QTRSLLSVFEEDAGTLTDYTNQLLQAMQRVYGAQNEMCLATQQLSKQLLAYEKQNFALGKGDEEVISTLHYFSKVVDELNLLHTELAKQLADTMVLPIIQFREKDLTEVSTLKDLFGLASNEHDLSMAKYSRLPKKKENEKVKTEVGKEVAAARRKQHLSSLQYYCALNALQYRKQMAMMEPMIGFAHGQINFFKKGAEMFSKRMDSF

[2] = target: T1, BAR2-YFP (C-terminal YFP fusion of the APPL2 minimal BAR domain, residues 18-225) (human); experiment: FRET or BRET; sequential acceptor photobleaching (20 images, linear regression to 100% YFP bleached); CFP donor and YFP acceptor co-expressed in DLD-1 cells, fixed
[3] = target: T1, BAR2-YFP (C-terminal YFP fusion of the APPL2 minimal BAR domain, residues 18-225) (human); experiment: FRET or BRET; standard acceptor photobleaching (pre-bleach against final image after 19 bleach exposures, FRET efficiency %); CFP donor and YFP acceptor co-expressed in DLD-1 cells, fixed
[4] = target: T1, BAR2-YFP (C-terminal YFP fusion of the APPL2 minimal BAR domain, residues 18-225) (human); experiment: FRET or BRET; sensitized emission (NFRET) from pre-bleach emission spectra; CFP donor and YFP acceptor co-expressed in DLD-1 cells, fixed with 2% formaldehyde 24 h after transfection; confocal microscope with spectral detector
[5] = target: T2, BAR1-YFP (C-terminal YFP fusion of the APPL1 minimal BAR domain, residues 18-226) (human) (UniProt Q9UKG1); experiment: FRET or BRET; comparison of pre-bleach and post-bleach emission spectra (lambda mode, same detector gain) in the bleached region; CFP donor and YFP acceptor co-expressed in DLD-1 cells, fixed
T2 sequence: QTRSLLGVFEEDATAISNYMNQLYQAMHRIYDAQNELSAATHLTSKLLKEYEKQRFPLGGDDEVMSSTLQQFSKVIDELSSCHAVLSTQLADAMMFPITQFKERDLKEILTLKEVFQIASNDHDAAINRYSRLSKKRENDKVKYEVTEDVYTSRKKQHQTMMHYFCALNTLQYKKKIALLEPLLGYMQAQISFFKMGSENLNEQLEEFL

[6] = target: T2, BAR1-YFP (C-terminal YFP fusion of the APPL1 minimal BAR domain, residues 18-226) (human); experiment: FRET or BRET; sequential acceptor photobleaching (20 images, linear regression to 100% YFP bleached); CFP donor and YFP acceptor co-expressed in DLD-1 cells, fixed
[7] = target: T2, BAR1-YFP (C-terminal YFP fusion of the APPL1 minimal BAR domain, residues 18-226) (human); experiment: FRET or BRET; standard acceptor photobleaching (pre-bleach against final image after 19 bleach exposures, FRET efficiency %); CFP donor and YFP acceptor co-expressed in DLD-1 cells, fixed
[8] = target: T2, BAR1-YFP (C-terminal YFP fusion of the APPL1 minimal BAR domain, residues 18-226) (human); experiment: FRET or BRET; sensitized emission (NFRET) from pre-bleach emission spectra; CFP donor and YFP acceptor co-expressed in DLD-1 cells, fixed with 2% formaldehyde 24 h after transfection; confocal microscope with spectral detector

Measured: binding

B1: CFP-BAR2 (N-terminal CFP fusion of the APPL2 minimal BAR domain, residues 18-225) (domain or fragment, UniProt Q8NEU8 18-225)
chain: QTRSLLSVFEEDAGTLTDYTNQLLQAMQRVYGAQNEMCLATQQLSKQLLAYEKQNFALGKGDEEVISTLHYFSKVVDELNLLHTELAKQLADTMVLPIIQFREKDLTEVSTLKDLFGLASNEHDLSMAKYSRLPKKKENEKVKTEVGKEVAAARRKQHLSSLQYYCALNALQYRKQMAMMEPMIGFAHGQINFFKKGAEMFSKRMDSF
binds: [1] | [2] | [3] | [4]

B2: CFP-BAR1 (N-terminal CFP fusion of the APPL1 minimal BAR domain, residues 18-226) (domain or fragment, UniProt Q9UKG1 18-226)
chain: QTRSLLGVFEEDATAISNYMNQLYQAMHRIYDAQNELSAATHLTSKLLKEYEKQRFPLGGDDEVMSSTLQQFSKVIDELSSCHAVLSTQLADAMMFPITQFKERDLKEILTLKEVFQIASNDHDAAINRYSRLSKKRENDKVKYEVTEDVYTSRKKQHQTMMHYFCALNTLQYKKKIALLEPLLGYMQAQISFFKMGSENLNEQLEEFL
binds: [5] | [6] | [7] | [8]
